Measurements from patent US11193155B2, “Designer α 6-fucosidase mutants enable direct core fucosylation of intact N-glycopeptides and N-glycoproteins” (UNIVERSITY OF MARYLAND, COLLEGE PARK, priority 2016, dated 2021).
Positions count from the first letter of the chain named. In names and notes the source's numbering stands. The name of at least one read-out is uncertain.

Experiment: Transglycosylation kinetics of AlfC α-fucosidase mutants
Assay type: biochemical
Details: donor sugar 0.2 to 2.0 mM, acceptor 2.0 mM, sodium phosphate 0.1M pH 7.5, 42° C.
Method: The kinetic studies on transglycosylation were carried out at 42° C. in sodium phosphate (0.1 M, pH 7.5). The transglycosylation product was detected and quantitated by HPLC analysis. The concentration of the donor substrates (1-3) was varied from 0.2 to 2.0 mM, while that of the acceptor (4) was fixed (2 mM). KM and kcat values (strictly, apparent KM and kcat, as they were determined at a fixed, nonsaturating, co-substrate concentration) were determined by fitting the initial velocity curves to the Michaelis-Menten equation by nonlinear regression in GraFit.

B1: E274G: Lactobacillus casei α1,6-fucosidase (AlfC) mutant at general acid/base residue E274 (protein)
chain: MNDNVAWFKQAKYGMMIHWGLYSLLAGEYRGESSSAYAEWIQSKFQIPNAEYGNLATAFNPLYFDAKKIVALAKQCGMQYLVVTTKHHDGFAMYHSKVDAYNVYDATPFHRDIIGELAEACQKAGLKFGLYYSQDLDWHDPNGGGYKSNDVETAGTTWDNSWDFPDEDQKNFDLCFDNKILPQIKEIMSNYGDIATAWFDVPMTLSEAQSQTIYDTVRELQPNCLINSRLGNGKYDFVSLGDNEIPKNKEDMNKTDVDYNEITGFKPSPLGLYGTAGTINDSWGFSYHDQNWKTPRTLYRYKQHLNDFGINYLLNVGLDPLGRVPMMAEENLLAAKALEDEANRL
kcat/KM: 5.52 ± 0.41 × 10^2 min^−1mM^−1

B2: E274S: Lactobacillus casei α1,6-fucosidase (AlfC) mutant at general acid/base residue E274 (protein)
chain: B1 chain with G274S
kcat/KM: 9.31 ± 0.56 × 10^2 min^−1mM^−1
